This list was built around the results that the source calls inconclusive (neither active nor inactive); the mix of calls is not that of the screen. Calls of active or inactive are those of the source. The rule behind the calls is not given here.
Assay: PubChem AID 493064
Details: C. albicans CaCi-8 + fluconazole, Alamar Blue growth, 48 h; at 26 µM (top of the series) unless noted

**Q.** Which activity change, negative = inhibition does the source give for `O=C(c1ccc(Cl)cc1)N1CCN(c2ccc(C(F)(F)F)cn2)CC1` here?
**A.** inconclusive: -24.2%

**Q.** With `COC(=O)Cn1c(-c2ccccc2)nc2ccccc21` as the molecule, how does the activity change, negative = inhibition read?
**A.** inactive: -13.8%

**Q.** For `CC(C)C(=O)N1CCN(c2ccccn2)CC1`, which activity change, negative = inhibition is on record?
**A.** inactive: -2.77%

**Q.** With `COC(=O)Cn1nc(-c2ccc(Cl)cc2)c2ccccc21` as the molecule, how does the activity change, negative = inhibition read?
**A.** inconclusive: -74%

**Q.** Which activity change, negative = inhibition does the source give for `Cc1ccc(C(=O)N2CCN(c3ccccn3)CC2)cc1` here?
**A.** inconclusive: -62.8%

**Q.** With `O=C(c1ccccc1Cl)N1CCN(c2ccccn2)CC1` as the molecule, how does the activity change, negative = inhibition read?
**A.** inconclusive: 3.56%

**Q.** Which activity change, negative = inhibition does the source give for `CC1CCN(C(=O)Cn2c3ccc(F)cc3c3nc4n(c(=O)c32)CCCS4)CC1` here?
**A.** inconclusive: -22.8%

**Q.** With `O=C(Cn1nc(C(=O)N2CCCCC2)c2ccccc21)N1CCOCC1` as the molecule, how does the activity change, negative = inhibition read?
**A.** inactive: -1.16%

**Q.** With `O=c1c2[nH]c3ccccc3c2nc2n1CCS2` as the molecule, how does the activity change, negative = inhibition read?
**A.** inconclusive: -33.9%

**Q.** With `N#Cc1ccc(C(=O)N2CCN(c3ccccn3)CC2)cc1` as the molecule, how does the activity change, negative = inhibition read?
**A.** inconclusive: -32.4%

**Q.** For `O=C(c1cccc(Cl)c1)N1CCN(c2ccccn2)CC1`, which activity change, negative = inhibition is on record?
**A.** inactive: -1.33%

**Q.** Which activity change, negative = inhibition does the source give for `COc1ccc2c(c1)c1nc3n(c(=O)c1n2CC(=O)N1CCC(C)CC1)CCS3` here?
**A.** inconclusive: 6.87% [at 2.6 µM]

**Q.** With `O=C(Cn1c2ccccc2c2nc3n(c(=O)c21)CCCS3)c1ccc(F)cc1` as the molecule, how does the activity change, negative = inhibition read?
**A.** inconclusive: -1.71%

**Q.** For `O=C(Cn1nc(-c2ccccc2)c2ccccc21)N1CCc2ccccc2C1`, which activity change, negative = inhibition is on record?
**A.** inconclusive: 3.71%

**Q.** Which activity change, negative = inhibition does the source give for `CCOC(=O)c1nn(Cc2ccc(Cl)cc2)c2ccccc12` here?
**A.** inconclusive: 2.37%

**Q.** For `CC1CCN(C(=O)Cn2c3ccccc3c3nc4n(c(=O)c32)CCCS4)CC1`, which activity change, negative = inhibition is on record?
**A.** inconclusive: -29%

**Q.** Which activity change, negative = inhibition does the source give for `O=C(c1ccc(Cl)cc1)N1CCN(c2nc3ccccc3o2)CC1` here?
**A.** inconclusive: -69.5%

**Q.** With `COc1ccc(NC(=O)Cn2c3ccccc3c3nc4n(c(=O)c32)CCS4)cc1` as the molecule, how does the activity change, negative = inhibition read?
**A.** inconclusive: -26.4%

**Q.** For `c1ccc(-c2n[nH]c3ccccc23)cc1`, which activity change, negative = inhibition is on record?
**A.** inconclusive: 1.29%

**Q.** With `CCCNC(=O)Cn1nc(-c2ccccc2)c2ccccc21` as the molecule, how does the activity change, negative = inhibition read?
**A.** inconclusive: 4.78%

**Q.** Which activity change, negative = inhibition does the source give for `CNC(=O)Cn1nc(-c2ccccc2)c2ccccc21` here?
**A.** inconclusive: -0.609%

**Q.** For `O=C(c1ccc(F)cc1)N1CCN(c2ccccn2)CC1`, which activity change, negative = inhibition is on record?
**A.** inconclusive: -40.5%

**Q.** For `CCCNC(=O)Cn1nc(-c2ccccc2)c2cc(Cl)ccc21`, which activity change, negative = inhibition is on record?
**A.** inconclusive: 6.33%

— PubChem BioAssay AID493064 (Broad Institute, 2011)
